Some entries share one result that the patent states for a list of compounds.
Tested on: Bst DNA polymerase, Taq DNA polymerase, MMLV-RT
Assay: Polymerase extension of 32P-labeled 12-mer primer on synthetic 30-mer template to full-length product
Format: biochemical
Settings: substituted for dATP or dTTP; 250 microM each dNTP; 15 minutes
Procedure: The ability of the Bacillus sterothermophilus (Bst) DNA polymerase (New England Biolabs), the Thermus aquaticus (Taq) DNA polymerase (Amersham) and the Moloney Murine Leukemia Virus reverse transcriptase (MMLV-RT) (Amersham) to incorporate the 2-amino-2′-deoxyadenosine-5′-triphosphate and 2-thiothymidine-5′-triphosphate into polynucleotides was tested using a synthetic 30-mer template and ^32P-labeled 12-mer primer (S.A. 130 Ci/mmol). (FIG. 2A). Extension reactions for each polymerase were performed in 0.65 ml pre-siliconized microfuge tubes containing the following components: (Bst) 20 mM Tris-Cl (pH 8.8 @ 25° C.), 10 mM KCl, 10 mM (NH4)2SO4, 2 mM MgSO4, 0.1% Triton-X100, 0.5 microM primer/template, 250 microM each dNTP and 0.15 units/microL Bst DNA polymerase; (Taq) 26 mM Tris-Cl (pH 9.5 @25° C.), 6.5 mM MgCl2, 0.5 microM primer/template, 250 microM each dNTP and 0.15 units/microL Taq DNA polymerase; (MMLV-RT) 50 mM Tris-Cl (pH 8.3 @ 25° C.) 75 mM KCl, 3 mM MgCl2, […], 0.5 microM primer/template, 250 microM each dNTP and 0.5 units/microL MMLV-RT. The reactions were incubated for 15 minutes at 65° C. for the Bst and Taq reactions and 42° C. for the MMLV-RT reaction. The reaction mixtures were separated by electrophoresis on 10% denaturing (7M urea) polyacrylamide gels and visualized by phosphorimaging methods.

SMILES | primer converted to full-length 30-mer product
Nc1nc(N)c2ncn([C@H]3C[C@H](O)[C@@H](COP(=O)(O)OP(=O)(O)OP(=O)(O)O)O3)c2n1 [2-amino-2′-deoxyadenosine-5′-triphosphate] | greater than 90%
Cc1cn([C@H]2C[C@H](O)[C@@H](COP(=O)(O)OP(=O)(O)OP(=O)(O)O)O2)c(=S)[nH]c1=O [2-thiothymidine-5′-triphosphate] | greater than 90%

— patent US20040086880A1, “Method of producing nucleic acid molecules with reduced secondary structure” (priority 1999, published 2004)
